Literature values in patent publication US11541093B2, “Pharmacological use of Cimicifuga extract” (Max Zeller Soehne AG, priority 2012, dated 2023).
For at least one compound, name, drawing or mass did not settle the structure.

Test system: ovx rats
Conditions: cited from earlier work

For C[C@]12CC[C@@H]3c4ccc(O)cc4CC[C@H]3[C@@H]1CC[C@@H]2O [E2, estradiol], the “glucose AUC in the IPGTT” value is listed as “significant reduction”.
